Reference: doi:10.1101/2023.09.14.557376

T1: biotinylated IRF4 (IRF4-Avi-tag fusion protein, interferon regulatory factor 4) (mouse) (UniProt Q64287)
T1 sequence (chain, biotin on the Avi-tag (BirA-mediated in vivo biotinylation)): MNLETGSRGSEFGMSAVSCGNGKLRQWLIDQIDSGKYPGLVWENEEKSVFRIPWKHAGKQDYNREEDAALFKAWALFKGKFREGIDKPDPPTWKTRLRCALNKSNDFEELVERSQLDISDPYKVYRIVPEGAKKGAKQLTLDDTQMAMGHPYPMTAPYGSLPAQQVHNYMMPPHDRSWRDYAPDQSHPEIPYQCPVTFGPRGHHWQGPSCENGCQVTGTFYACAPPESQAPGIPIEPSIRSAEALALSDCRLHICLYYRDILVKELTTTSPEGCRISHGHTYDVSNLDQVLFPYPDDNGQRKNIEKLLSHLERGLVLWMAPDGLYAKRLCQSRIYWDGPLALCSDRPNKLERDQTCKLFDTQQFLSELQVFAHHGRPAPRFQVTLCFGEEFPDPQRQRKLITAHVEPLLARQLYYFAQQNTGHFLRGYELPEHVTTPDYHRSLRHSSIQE


Target: T1, biotinylated IRF4 (IRF4-Avi-tag fusion protein, interferon regulatory factor 4) (mouse)
Assay: affinity purification with mass spectrometry

binding | Binder
binds | ZN609 (protein, UniProt Q8BZ47 1-1413) MSLSSGACGGKGVDANPVETYDSGDEWDIGVGNLIIDLDADLEKDQQKLEMSGSKEVGIPAPNAVATLPDNIKFVTPVPGPQGKEGKSKSKRSKSGKDASKPTPGTSLFSPSEGAASKKEVQGRAGDGASAGGLVAAVAPKGSEKAAKASRSVAGSKKEKENSSSKGKKERSEGVGTCSEKDPGVLQPVPLGGRGSQYDGSAGMDTGTVEPLGSIAIEPGAALNPLGTKPEPEEGENECRPLKKVKSEKMESPVSTPAVLPLHLLVPVVNNDISSPCEQIMVRTRSVGVNTCDVALATEPECLGPCEPGTSVNLEGIVWQETEDGMLVVNVTWRNKTYVGTLLDCTRHDWAPPRFCDSPTSDLEMRNGRGRGKRMRPSSNTPVSEAAAASDSKGTSSSSKTRAGANSKGRRGSQNSSEHRPPASSTSEDVKASPSSANKRKSKPLSDMELNSSSEDSKGSKRVRTNSMGSATGPLPGTKVEPTLVDRNCPSPVLIDCPHPNCNKKYKHINGLKYHQAHAHTDDDSKPEADGDSEYGEEPALHADLSCNGAPVPQKGSLSPARSATPKVRLVEPHSPSPSSKFSTKGLCKKKLSGEGDTDPGALSNDGSDDGPSVMDETSNDAFDSLERKCMEKEKCKKPSSLKSEKIPSKSLKSARPIAPAIPPQQIYTFQTATFTAASPGSSSGLTTTVVQAMPNSPQLKPIQPKPTVMGEPFTVNPALTPAKDKKKKDKKKKDSSKELESPLTPGKVCRAEEGKSPFRDAAGDGIKVESLLNGSSESHQSRLASIKAEADKIYSFTDNAPSPSIGGSSRLDSTTPTQPLTPLHVVTQNGAEASSVKTNSPAYSDISDAGEDGEGKVDSAKSKDPEQLVKEGAKKTLFPPQPQSKDSPYYQGFESYYSPGYAQSSPGTLTSSSQAGMEGQPLKTKKDEEPESVEGKVKNDVCEEKKPELSNSSQQPSVIQQRPNMYMQSLYYNQYAYVPPYGYSDQSYHSHLLSTNTAYRQQYEEQQKRQSLEQQQQQQRGLDKKTEMGLKEREASLKEEWKQKPSIPPTLTKAPSLTDLVKSGPGKAKEPGTDPAKSVIIPKLDDSSKLPSQPPEGLKGKLGEASHLGKEASEAKTGTECGRQAEVDPILWYRQETESRMWTYVYPAKYSDIKSEDDRWKEERDRKLKEDRSRSKDSVPKEDGKESTSSDCKLPPSEESRLGSKEPRPSVHVPVSSPLTQHQSYIPYMHGYSYSQSYDPNHPSYRGMPAVMMQNYPGSYLPSSYSFSPYGSKVSGGEDADKARASPSVSCKASSESKALDILQQHASHYKSKSPTISDKNSQERDRGGCGVVGGGGSCGSVAGAGGTDRSADRPRTSPSQRLMSTHHHHHHLGYSLLPAQYNLPYAAGLSSTAIVASQQGSTPSLYPPPRR
binds | hyaluronan-mediated motility receptor (HMMR) (protein, UniProt Q00547 1-794) MSFPKAPLKRFNDPSGCAPSPGAYDVKTSEATKGPVSFQKSQRFKNQRESQQNLNIDKDTTLLASAKKAKKSVSKKDSQKNDKDVKRLEKEIRALLQERGTQDKRIQDMESELEKTEAKLNAAVREKTSLSASNASLEKRLTELTRANELLKAKFSEDGHQKNMRALSLELMKLRNKRETKMRSMMVKQEGMELKLQATQKDLTESKGKIVQLEGKLVSIEKEKIDEKCETEKLLEYIQEISCASDQVEKCKVDIAQLEEDLKEKDREILSLKQSLEENITFSKQIEDLTVKCQLLETERDNLVSKDRERAETLSAEMQILTERLALERQEYEKLQQKELQSQSLLQQEKELSARLQQQLCSFQEEMTSEKNVFKEELKLALAELDAVQQKEEQSERLVKQLEEETKSTAEQLTRLDNLLREKEVELEKHIAAHAQAILIAQEKYNDTAQSLRDVTAQLESVQEKYNDTAQSLRDVTAQLESEQEKYNDTAQSLRDVTAQLESEQEKYNDTAQSLRDVTAQLESVQEKYNDTAQSLRDVTAQLESYKSSTLKEIEDLKLENLTLQEKVAMAEKSVEDVQQQILTAESTNQEYARMVQDLQNRSTLKEEEIKEITSSFLEKITDLKNQLRQQDEDFRKQLEEKGKRTAEKENVMTELTMEINKWRLLYEELYEKTKPFQQQLDAFEAEKQALLNEHGATQEQLNKIRDSYAQLLGHQNLKQKIKHVVKLKDENSQLKSEVSKLRSQLVKRKQNELRLQGELDKALGIRHFDPSKAFCHASKENFTPLKEGNPNCC
binds | TBX21 (protein, UniProt Q9JKD8 1-530) MGIVEPGCGDMLTGTEPMPSDEGRGPGADQQHRFFYPEPGAQDPTDRRAGSSLGTPYSGGALVPAAPGRFLGSFAYPPRAQVAGFPGPGEFFPPPAGAEGYPPVDGYPAPDPRAGLYPGPREDYALPAGLEVSGKLRVALSNHLLWSKFNQHQTEMIITKQGRRMFPFLSFTVAGLEPTSHYRMFVDVVLVDQHHWRYQSGKWVQCGKAEGSMPGNRLYVHPDSPNTGAHWMRQEVSFGKLKLTNNKGASNNVTQMIVLQSLHKYQPRLHIVEVNDGEPEAACSASNTHVFTFQETQFIAVTAYQNAEITQLKIDNNPFAKGFRENFESMYASVDTSVPSPPGPNCQLLGGDPFSPLLSNQYPVPSRFYPDLPGQPKDMISQPYWLGTPREHSYEAEFRAVSMKPTLLPSAPGPTVPYYRGQDVLAPGAGWPVAPQYPPKMSPAGWFRPMRTLPMDPGLGSSEEQGSSPSLWPEVTSLQPEPSDSGLGEGDTKRRRISPYPSSGDSSSPAGAPSPFDKETEGQFYNYFPN
binds | ARID5A (protein, UniProt Q3U108 1-590) MAAPPAKGNTEQSEEGDLPQLPVSPKPDDEQSRSQSPTQLQDSPEAGGEQEEEQAFLVSLYKFMKERHTPIERVPHLGFKQINLWKIYKAVEKLGAYELVTGRRLWKNVYDELGGSPGSTSAATCTRRHYERLVLPYVRHLKGEDDKPLPPTKPRKQYKMAKELRGDDGTTEKLKKAKDSEERRVEQTTPGKTKSDATGQTQLPCQGSSRDSTEQLGPVSGPSPPLTGASSCPEAYKRLLSSFYCKGAHGIMSPLAKKKLLAQVSKAEALQCQEEGCRHGARSPNKDIQDSPQNLRGPAENSEHQLTPREGLQAPGGSTRMEAQVGPCPTAPMFSGCFHAYPTEVLKPVSQHPRDFFSGLKDRVLLGPPGKEEGPTTKESHLVWGGDANHPSAFHKGSTRKRSFYPKPKACWVSPMAKVPTERPGAPSPHPSSPGLGSKRGLEEEGFAHGGKKLRAVSPFLKEVDSKETGGKPAAPGLAVSCLLGPTPGPTPPEAYRGTMLRCPLNFTGSADPLKGQASLPFSPLVIPAFPAHLLATTGSSPMAASLMHFPPTPYDAVLRNRLGPASSAWHMPPVTTYAAPHFFHLNTKL
binds | CDK7 (enzyme, UniProt Q03147 1-346) MAVDVKSRAKRYEKLDFLGEGQFATVYKARDKNTNQIVAIKKIKLGHRSEAKDGINRTALREIKLLQELSHPNIIGLLDAFGHKSNISLVFDFMETDLEVIIKDNSLVLTPSHIKAYMLMTLQGLEYLHQHWILHRDLKPNNLLLDENGVLKLADFGLAKSFGSPNRAYTHQVVTRWYRAPELLFGARMYGVGVDMWAVGCILAELLLRVPFLPGDSDLDQLTRIFETLGTPTEEQWPDMCSLPDYVTFKSFPGVPLQHIFIAAGDDLLELIQGLFLFNPCTRTTASQALKTKYFSNRPGPTPGCQLPRPNCPVEALKEPANPTVATKRKRAEALEQGILPKKLIF
binds | SATB1 (protein, UniProt Q60611 1-764) MDHLNEATQGKEHSEMSNNVSDPKGPPAKIARLEQNGSPLGRGRLGSTGGKMQGVPLKHSGHLMKTNLRKGTMLPVFCVVEHYENAIEYDCKEEHAEFVLVRKDMLFNQLIEMALLSLGYSHSSAAQAKGLIQVGKWNPVPLSYVTDAPDATVADMLQDVYHVVTLKIQLHSCPKLEDLPPEQWSHTTVRNALKDLLKDMNQSSLAKECPLSQSMISSIVNSTYYANVSAAKCQEFGRWYKHFKKTKDMMVEMDSLSELSQQGANHVNFGQQPVPGNTAEQPPSPAQLSHGSQPSVRTPLPNLHPGLVSTPISPQLVNQQLVMAQLLNQQYAVNRLLAQQSLNQQYLNHPPPVSRSMNKPLEQQVSTNTEVSSEIYQWVRDELKRAGISQAVFARVAFNRTQGLLSEILRKEEDPKTASQSLLVNLRAMQNFLQLPEAERDRIYQDERERSLNAASAMGPAPLLSTPPSRPPQVKTATLATERNGKPENNTMNINASIYDEIQQEMKRAKVSQALFAKVAATKSQGWLCELLRWKEDPSPENRTLWENLSMIRRFLSLPQPERDAIYEQESNAVHHHGDRPPHIIHVPAEQIQQQQQQQQQQQQQQQPPPPPPQPQPQPQAGPRLPPRQPTVASSAESDEENRQKTRPRTKISVEALGILQSFIQDVGLYPDEEAIQTLSAQLDLPKYTIIKFFQNQRYYLKHHGKLKDNSGLEVDVAEYKDEELLKDLEESVQDKNANTLFSVKLEEELSVEGSTDVNADLKD
binds | BCL-3 (protein, UniProt Q9Z2F6 1-448) MPRCPAGAMDEGPVDLRTRPKGTPGAALPLRKRPLRPASPEPATTRSPAGPLDALRSGCDVPVVPGPPHCVARPEALYYQGPLMPIYSTPTMAPHFPLLNLPTHPYSMICPMEHPLSADIAMATRVDEDGDTPLHIAVVQNNIAAVYRILSLFKLGSREVDVHNNLRQTPLHLAVITTLPDMVRLLVTAGASPMALDRHGQTAIHLACEHRSPSCLQALLDSATSGSVDLEVRNYEGLTALHVAVNTGCQEAVLLLLERGADIDAVDIKSGRSPLIHAVENNSLNMVQLLLLHGANVNAQMYSGSSALHSASGRGLLPLVRTLVRSGADSGLKNCHNDTPLMVARSRRVIDILRGKASRAASGSQPEPSPDQSATNSPESSSRLSSNGLQSSPSSSPSLSPPKDAPGFPATPQNFFLPTTSTPAFLPFPGVLRGPGRPVPPSPAPGSS
binds | Fosl2 (protein, UniProt P47930 1-326) MYQDYPGNFDTSSRGSSGSPAHAESYSSGGGGQQKFRVDMPGSGSAFIPTINAITTSQDLQWMVQPTVITSMSNPYPRSHPYSPLPGLASVPGHMALPRPGVIKTIGTTVGRRRRDEQLSPEEEEKRRIRRERNKLAAAKCRNRRRELTEKLQAETEELEEEKSGLQKEIAELQKEKEKLEFMLVAHGPVCKISPEERRSPPTSGLQSLRGTGSAVGPVVVKQEPPEEDSPSSSAGMDKTQRSVIKPISIAGGGFYGEEPLHTPIVVTSTPAITPGTSNLVFTYPNVLEQESPSSPSESCSKAHRRSSSSGDQSSDSLNSPTLLAL

Results are given in words; binding and its absence hold for the method and conditions named. Binding seen in cells or lysates may run through a third protein. These calls come from enrichment with a bait or labelling near it, and not all partners need be listed. Where a sequence is shown, tags or fusion partners need not be part of it.
